# From paper PMC8864472
# Amino acid sequences for entries named in this document (tags omitted).
# UniProt O14939: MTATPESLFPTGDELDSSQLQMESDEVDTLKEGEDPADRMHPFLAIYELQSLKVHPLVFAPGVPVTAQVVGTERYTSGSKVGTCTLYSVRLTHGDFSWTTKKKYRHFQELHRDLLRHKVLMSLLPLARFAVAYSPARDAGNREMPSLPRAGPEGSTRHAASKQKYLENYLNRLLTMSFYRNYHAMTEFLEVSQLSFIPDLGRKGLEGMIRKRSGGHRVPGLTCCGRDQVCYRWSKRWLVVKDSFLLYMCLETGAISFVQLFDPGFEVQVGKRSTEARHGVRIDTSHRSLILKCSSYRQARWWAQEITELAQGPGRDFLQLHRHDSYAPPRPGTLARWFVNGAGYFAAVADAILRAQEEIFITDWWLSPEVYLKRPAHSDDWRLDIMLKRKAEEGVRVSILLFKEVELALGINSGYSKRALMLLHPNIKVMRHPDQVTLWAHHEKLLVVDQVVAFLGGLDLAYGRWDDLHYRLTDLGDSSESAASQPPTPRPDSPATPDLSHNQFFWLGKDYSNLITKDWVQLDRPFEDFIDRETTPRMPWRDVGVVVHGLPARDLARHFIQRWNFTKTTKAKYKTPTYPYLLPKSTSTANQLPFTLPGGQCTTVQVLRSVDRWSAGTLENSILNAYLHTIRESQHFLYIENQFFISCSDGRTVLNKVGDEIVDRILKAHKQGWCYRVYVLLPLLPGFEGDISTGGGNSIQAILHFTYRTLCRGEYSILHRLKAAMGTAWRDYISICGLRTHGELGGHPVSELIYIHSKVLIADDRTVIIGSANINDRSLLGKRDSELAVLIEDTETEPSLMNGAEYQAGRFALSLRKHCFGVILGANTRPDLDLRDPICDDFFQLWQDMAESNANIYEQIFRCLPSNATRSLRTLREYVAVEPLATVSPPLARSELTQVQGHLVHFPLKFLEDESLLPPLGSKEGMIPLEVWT
# UniProt P68371: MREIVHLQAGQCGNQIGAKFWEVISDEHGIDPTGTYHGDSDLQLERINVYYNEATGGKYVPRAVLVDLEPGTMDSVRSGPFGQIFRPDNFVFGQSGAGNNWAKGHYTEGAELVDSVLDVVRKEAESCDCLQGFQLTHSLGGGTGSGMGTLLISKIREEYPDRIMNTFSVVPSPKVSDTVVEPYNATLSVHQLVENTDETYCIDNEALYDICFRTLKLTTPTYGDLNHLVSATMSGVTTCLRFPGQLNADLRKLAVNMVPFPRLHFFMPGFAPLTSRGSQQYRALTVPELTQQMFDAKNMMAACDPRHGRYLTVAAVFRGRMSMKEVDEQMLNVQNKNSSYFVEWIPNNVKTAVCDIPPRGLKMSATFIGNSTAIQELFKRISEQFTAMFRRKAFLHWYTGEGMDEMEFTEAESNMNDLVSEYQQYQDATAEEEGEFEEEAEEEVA
# UniProt Q9BQE3: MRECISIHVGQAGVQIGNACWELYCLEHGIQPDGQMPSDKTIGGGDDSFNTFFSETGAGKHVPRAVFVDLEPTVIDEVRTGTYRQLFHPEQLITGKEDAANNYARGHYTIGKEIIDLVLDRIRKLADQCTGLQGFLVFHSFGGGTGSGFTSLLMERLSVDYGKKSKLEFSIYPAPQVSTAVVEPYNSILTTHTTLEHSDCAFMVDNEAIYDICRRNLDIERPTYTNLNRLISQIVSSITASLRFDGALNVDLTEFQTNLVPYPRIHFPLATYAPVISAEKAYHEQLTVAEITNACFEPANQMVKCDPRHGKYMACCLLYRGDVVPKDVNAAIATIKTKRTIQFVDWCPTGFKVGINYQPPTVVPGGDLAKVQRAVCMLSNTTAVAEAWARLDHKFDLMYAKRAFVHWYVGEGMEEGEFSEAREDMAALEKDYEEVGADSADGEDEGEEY
# UniProt Q9BVA1: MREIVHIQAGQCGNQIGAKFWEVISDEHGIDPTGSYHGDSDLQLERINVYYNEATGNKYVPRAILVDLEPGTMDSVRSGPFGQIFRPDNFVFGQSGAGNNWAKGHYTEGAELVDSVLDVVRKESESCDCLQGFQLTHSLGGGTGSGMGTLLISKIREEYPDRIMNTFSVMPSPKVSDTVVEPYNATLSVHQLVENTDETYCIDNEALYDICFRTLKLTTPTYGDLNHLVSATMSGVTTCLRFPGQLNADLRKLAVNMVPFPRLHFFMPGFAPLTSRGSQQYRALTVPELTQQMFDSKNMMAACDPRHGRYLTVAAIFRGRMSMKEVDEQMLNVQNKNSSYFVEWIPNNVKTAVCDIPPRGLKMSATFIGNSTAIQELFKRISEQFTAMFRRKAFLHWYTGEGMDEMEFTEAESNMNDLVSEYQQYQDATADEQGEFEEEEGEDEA
# Results are given in words; binding and its absence hold for the method and conditions named. Binding seen in cells or lysates may run through a third protein. These calls come from enrichment with a bait or labelling near it, and not all partners need be listed. For some assays here: Sequences can lack the tags named with a protein.
# B1: ANKMY2 (protein, UniProt Q8IV38 1-441)
# chain: MVHIKKGELTQEEKELLEVIGKGTVQEAGTLLSSKNVRVNCLDENGMTPLMHAAYKGKLDMCKLLLRHGADVNCHQHEHGYTALMFAALSGNKDITWVMLEAGAETDVVNSVGRTAAQMAAFVGQHDCVTIINNFFPRERLDYYTKPQGLDKEPKLPPKLAGPLHKIITTTNLHPVKIVMLVNENPLLTEEAALNKCYRVMDLICEKCMKQRDMNEVLAMKMHYISCIFQKCINFLKDGENKLDTLIKSLLKGRASDGFPVYQEKIIRESIRKFPYCEATLLQQLVRSIAPVEIGSDPTAFSVLTQAITGQVGFVDVEFCTTCGEKGASKRCSVCKMVIYCDQTCQKTHWFTHKKICKNLKDIYEKQQLEAAKEKRQEENHGKLDVNSNCVNEEQPEAEVGISQKDSNPEDSGEGKKESLESEAELEGLQDAPAGPQVSEE
# B2: PCCB (protein, UniProt P05166 29-539)
# chain: CSQATSVNERIENKRRTALLGGGQRRIDAQHKRGKLTARERISLLLDPGSFVESDMFVEHRCADFGMAADKNKFPGDSVVTGRGRINGRLVYVFSQDFTVFGGSLSGAHAQKICKIMDQAITVGAPVIGLNDSGGARIQEGVESLAGYADIFLRNVTASGVIPQISLIMGPCAGGAVYSPALTDFTFMVKDTSYLFITGPDVVKSVTNEDVTQEELGGAKTHTTMSGVAHRAFENDVDALCNLRDFFNYLPLSSQDPAPVRECHDPSDRLVPELDTIVPLESTKAYNMVDIIHSVVDEREFFEIMPNYAKNIIVGFARMNGRTVGIVGNQPKVASGCLDINSSVKGARFVRFCDAFNIPLITFVDVPGFLPGTAQEYGGIIRHGAKLLYAFAEATVPKVTVITRKAYGGAYDVMSSKHLCGDTNYAWPTAEIAVMGAKGAVEIIFKGHENVEAAQAEYIEKFANPFPAAVRGFVDDIIQPSSTRARICCDLDVLASKKVQRPWRKHANIPL
# B3: TTC1 (protein, UniProt Q99614 1-292)
# chain: MGEKSENCGVPEDLLNGLKVTDTQEAECAGPPVPDPKNQHSQSKLLRDDEAHLQEDQGEEECFHDCSASFEEEPGADKVENKSNEDVNSSELDEEYLIELEKNMSDEEKQKRREESTRLKEEGNEQFKKGDYIEAESSYSRALEMCPSCFQKERSILFSNRAAARMKQDKKEMAINDCSKAIQLNPSYIRAILRRAELYEKTDKLDEALEDYKSILEKDPSIHQAREACMRLPKQIEERNERLKEEMLGKLKDLGNLVLRPFGLSTENFQIKQDSSTGSYSINFVQNPNNNR
# B4: UNC45A (protein, UniProt Q9H3U1 1-944)
# chain: MTVSGPGTPEPRPATPGASSVEQLRKEGNELFKCGDYGGALAAYTQALGLDATPQDQAVLHRNRAACHLKLEDYDKAETEASKAIEKDGGDVKALYRRSQALEKLGRLDQAVLDLQRCVSLEPKNKVFQEALRNIGGQIQEKVRYMSSTDAKVEQMFQILLDPEEKGTEKKQKASQNLVVLAREDAGAEKIFRSNGVQLLQRLLDMGETDLMLAALRTLVGICSEHQSRTVATLSILGTRRVVSILGVESQAVSLAACHLLQVMFDALKEGVKKGFRGKEGAIIVDPARELKVLISNLLDLLTEVGVSGQGRDNALTLLIKAVPRKSLKDPNNSLTLWVIDQGLKKILEVGGSLQDPPGELAVTANSRMSASILLSKLFDDLKCDAERENFHRLCENYIKSWFEGQGLAGKLRAIQTVSCLLQGPCDAGNRALELSGVMESVIALCASEQEEEQLVAVEALIHAAGKAKRASFITANGVSLLKDLYKCSEKDSIRIRALVGLCKLGSAGGTDFSMKQFAEGSTLKLAKQCRKWLCNDQIDAGTRRWAVEGLAYLTFDADVKEEFVEDAAALKALFQLSRLEERSVLFAVASALVNCTNSYDYEEPDPKMVELAKYAKQHVPEQHPKDKPSFVRARVKKLLAAGVVSAMVCMVKTESPVLTSSCRELLSRVFLALVEEVEDRGTVVAQGGGRALIPLALEGTDVGQTKAAQALAKLTITSNPEMTFPGERIYEVVRPLVSLLHLNCSGLQNFEALMALTNLAGISERLRQKILKEKAVPMIEGYMFEEHEMIRRAATECMCNLAMSKEVQDLFEAQGNDRLKLLVLYSGEDDELLQRAAAGGLAMLTSMRPTLCSRIPQVTTHWLEILQALLLSSNQELQHRGAVVVLNMVEASREIASTLMESEMMEILSVLAKGDHSPVTRAAAACLDKAVEYGLIQPNQDGE
# B5: PJA2 (protein, UniProt O43164 1-708)
# chain: MSQYTEKEPAAMDQESGKAVWPKPAGGYQTITGRRYGRRHAYVSFKPCMTRHERSLGRAGDDYEVLELDDVPKENSSGSSPLDQVDSSLPSEPIFEKSETEIPTCGSALNQTTESSQSFVAVHHSEEGRDTLGSSTNLHNHSEGEYIPGACSASSVQNGIALVHTDSYDPDGKHGEDNDHLQLSAEVVEGSRYQESLGNTVFELENREAEAYTGLSPPVPSFNCEVRDEFEELDSVPLVKSSAGDTEFVHQNSQEIQRSSQDEMVSTKQQNNTSQERQTEHSPEDAACGPGHICSEQNTNDREKNHGSSPEQVVRPKVRKLISSSQVDQETGFNRHEAKQRSVQRWREALEVEESGSDDLLIKCEEYDGEHDCMFLDPPYSRVITQRETENNQMTSESGATAGRQEVDNTFWNGCGDYYQLYDKDEDSSECSDGEWSASLPHRFSGTEKDQSSSDESWETLPGKDENEPELQSDSSGPEEENQELSLQEGEQTSLEEGEIPWLQYNEVNESSSDEGNEPANEFAQPAFMLDGNNNLEDDSSVSEDLDVDWSLFDGFADGLGVAEAISYVDPQFLTYMALEERLAQAMETALAHLESLAVDVEVANPPASKESIDGLPETLVLEDHTAIGQEQCCPICCSEYIKDDIATELPCHHFFHKPCVSIWLQKSGTCPVCRRHFPPAVIEASAAPSSEPDPDAPPSNDSIAEAP
# Experiments:
# PLD2 (human) = PLD2 (human) (UniProt O14939); experiment: affinity purification with mass spectrometry; TAP-MS: C-terminal SFB-tagged PLD bait from stable HEK293A cells, lysed in NETN buffer (100 mM NaCl, 20 mM Tris-HCl pH 8.0, 0.5 mM EDTA, 0.5% Nonidet P-40), streptavidin beads, biotin elution, S protein beads, 4 °C; HCIP: SAINT score at least 0.8 and raw spectra count at least 2
# PLD6 (human) = biological target: T1, PLD6 (human) (UniProt Q8N2A8); experiment: as above
# T1 sequence: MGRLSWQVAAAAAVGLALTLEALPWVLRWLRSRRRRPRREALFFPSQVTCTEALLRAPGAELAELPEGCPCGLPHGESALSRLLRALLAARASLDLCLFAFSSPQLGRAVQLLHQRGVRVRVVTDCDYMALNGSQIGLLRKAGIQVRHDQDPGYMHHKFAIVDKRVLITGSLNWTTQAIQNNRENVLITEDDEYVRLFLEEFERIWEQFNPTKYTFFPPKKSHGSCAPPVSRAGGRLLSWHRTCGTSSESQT
# [1] = biological target: T2, ANKMY2 (not stated (Human ORFeome V5.1 library or DNASU plasmid)) (UniProt Q8IV38); experiment: affinity purification with mass spectrometry; reverse TAP-MS with ANKMY2 as bait; cells and conditions not told
# T2 sequence: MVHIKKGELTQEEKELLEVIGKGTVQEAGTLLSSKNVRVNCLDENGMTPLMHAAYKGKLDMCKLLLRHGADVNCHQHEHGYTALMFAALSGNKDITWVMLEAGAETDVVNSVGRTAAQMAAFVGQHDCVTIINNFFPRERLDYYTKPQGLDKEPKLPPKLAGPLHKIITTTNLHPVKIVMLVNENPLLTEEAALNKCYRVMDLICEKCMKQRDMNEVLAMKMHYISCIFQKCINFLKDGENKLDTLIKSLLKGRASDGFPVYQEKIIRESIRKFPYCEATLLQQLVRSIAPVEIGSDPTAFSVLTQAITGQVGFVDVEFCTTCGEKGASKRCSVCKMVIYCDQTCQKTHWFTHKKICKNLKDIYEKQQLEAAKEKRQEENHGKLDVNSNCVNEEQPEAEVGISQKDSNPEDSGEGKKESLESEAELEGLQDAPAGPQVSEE
# PLD5 (human) = biological target: T3, PLD5 (human) (UniProt Q8N7P1); experiment: affinity purification with mass spectrometry; TAP-MS: C-terminal SFB-tagged PLD bait from stable HEK293A cells, lysed in NETN buffer (100 mM NaCl, 20 mM Tris-HCl pH 8.0, 0.5 mM EDTA, 0.5% Nonidet P-40), streptavidin beads, biotin elution, S protein beads, 4 °C; HCIP: SAINT score at least 0.8 and raw spectra count at least 2
# T3 sequence: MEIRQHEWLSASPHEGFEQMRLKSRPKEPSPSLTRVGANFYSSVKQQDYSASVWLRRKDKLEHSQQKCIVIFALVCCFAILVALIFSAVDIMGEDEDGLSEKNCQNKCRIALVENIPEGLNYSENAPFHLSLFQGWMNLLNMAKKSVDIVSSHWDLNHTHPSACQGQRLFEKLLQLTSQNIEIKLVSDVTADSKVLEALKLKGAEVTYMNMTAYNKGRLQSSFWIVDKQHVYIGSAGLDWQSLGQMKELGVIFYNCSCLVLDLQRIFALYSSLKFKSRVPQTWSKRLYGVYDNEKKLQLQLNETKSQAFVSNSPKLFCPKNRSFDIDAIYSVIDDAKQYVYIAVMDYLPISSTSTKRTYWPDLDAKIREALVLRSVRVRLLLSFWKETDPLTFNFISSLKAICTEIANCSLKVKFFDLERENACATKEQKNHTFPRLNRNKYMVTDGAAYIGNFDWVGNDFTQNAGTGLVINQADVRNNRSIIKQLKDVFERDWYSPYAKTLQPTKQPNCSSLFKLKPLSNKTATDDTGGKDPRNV
# phospholipase D1 (human) = biological target: T4, phospholipase D1 (human) (UniProt Q13393); experiment: as above
# T4 sequence: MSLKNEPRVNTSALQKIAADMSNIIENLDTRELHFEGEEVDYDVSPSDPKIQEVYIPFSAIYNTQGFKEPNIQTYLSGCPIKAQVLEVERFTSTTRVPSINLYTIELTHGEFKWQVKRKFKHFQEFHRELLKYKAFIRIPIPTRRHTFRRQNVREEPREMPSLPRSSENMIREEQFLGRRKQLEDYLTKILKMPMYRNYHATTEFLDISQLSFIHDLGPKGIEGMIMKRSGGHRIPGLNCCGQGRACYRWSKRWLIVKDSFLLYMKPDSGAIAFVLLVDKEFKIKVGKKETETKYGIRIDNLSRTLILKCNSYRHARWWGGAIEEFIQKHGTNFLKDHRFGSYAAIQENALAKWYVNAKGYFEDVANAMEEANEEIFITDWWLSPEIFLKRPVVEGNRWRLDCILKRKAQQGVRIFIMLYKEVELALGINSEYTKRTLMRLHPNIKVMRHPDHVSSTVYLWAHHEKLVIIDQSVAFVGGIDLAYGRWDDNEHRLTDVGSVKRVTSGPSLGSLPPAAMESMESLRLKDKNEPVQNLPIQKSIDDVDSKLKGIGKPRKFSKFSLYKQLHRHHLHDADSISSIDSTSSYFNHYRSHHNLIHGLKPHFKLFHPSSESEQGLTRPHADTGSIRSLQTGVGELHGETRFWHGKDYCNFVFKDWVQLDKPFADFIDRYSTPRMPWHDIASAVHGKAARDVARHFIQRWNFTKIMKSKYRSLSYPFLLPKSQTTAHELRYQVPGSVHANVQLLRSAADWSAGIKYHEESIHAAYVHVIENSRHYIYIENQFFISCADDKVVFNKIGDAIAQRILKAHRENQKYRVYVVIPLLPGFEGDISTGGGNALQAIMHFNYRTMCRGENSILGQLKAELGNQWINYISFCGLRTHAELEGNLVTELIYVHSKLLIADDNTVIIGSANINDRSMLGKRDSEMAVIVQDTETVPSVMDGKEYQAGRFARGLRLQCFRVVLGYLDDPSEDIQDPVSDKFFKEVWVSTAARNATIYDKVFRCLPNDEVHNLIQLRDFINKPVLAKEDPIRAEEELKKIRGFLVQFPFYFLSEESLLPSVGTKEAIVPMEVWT
Molecule,binding (PLD2 (human)),binding (PLD6 (human)),binding (PLD5 (human)),further results
TUBB4B (from UniProt P68371 1-445),binds,binds,,
TUBA1C (from UniProt Q9BQE3 1-449),binds,binds,,
TUBB2B (from UniProt Q9BVA1 1-445),binds,binds,,
PLD2 (from UniProt O14939 1-933),,,,binding [1]: binds
B1,binds,,binds,binding (phospholipase D1 (human)): binds
B2,,,binds,
B3,,,binds,
B4,,,binds,
B5,,,,binding (phospholipase D1 (human)): binds
